{"source": "PubChem BioAssay AID493014", "about": "(National Center for Advancing Translational Sciences (NCATS), 2011)", "assay": "qHTS Assay to Find Inhibitors of Chronic Active B-Cell Receptor Signaling", "settings": "ABC-DLBCL IkBa-CBG/CBR reporter, luminescence ratio (green luciferase fused to IkBa over red control in TMD8 lymphoma cells), 4 h", "procedure,_shortened": "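Cell line TMD8 (human ABC DLBCL), stably expressing tet-inducible CBG68-IkBa fusion and CBR; IMDM/0.5% FBS; cpd up to 46 uM; dox induction, 4 h, 37C/5% CO2; dual luminescence; green/red ratio; MG132 control.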", "key": {"[1]": {"settings": "measured here: CBR red luminescence, cell number"}}, "note": "Where “and” joins values, the source holds several entries; their conditions need not be identical. Equal entries are not always repeated. This is one part of the list. Further columns of the screen follow, without active or inactive calls. Compounds called inactive in the main read-out are mostly missing here. The note in brackets gives the kind of curve behind each potency; many fits are weak."}
{"smiles": "Cc1cnc(=O)[nH]c1SCC(=O)Nc1nccs1", "values": [{"measurement": "AC50", "setting": "[1]", "result": "29.1 µM [falling, single point]"}]}
{"smiles": "COC(=O)Cc1cc(=O)n(-c2nc3ccccc3s2)[nH]1", "values": [{"measurement": "AC50", "setting": "[1]", "result": "8.2 µM [falling, partial curve, poor fit]"}]}
{"smiles": "Cc1ccccc1NS(=O)(=O)c1cc(S(C)(=O)=O)ccc1Cl", "values": [{"measurement": "AC50", "setting": "[1]", "result": "0.259 µM [rising, full curve, poor fit]"}]}
{"smiles": "CCOc1ccccc1NC(=S)Nc1ccc2cn[nH]c2c1", "values": [{"measurement": "AC50", "setting": "[1]", "result": "12.6 µM [falling, partial curve, poor fit]"}]}
{"smiles": "Cc1ccc(N2C(S)=C(C#N)C(=O)NC2c2ccco2)cc1", "note": "(configuration not stated)", "values": [{"measurement": "AC50", "setting": "[1]", "result": "6.31 µM [rising, full curve, poor fit]"}]}
{"smiles": "CCn1cc(C2=NC(CC(C)C)CO2)c2ccccc21", "note": "(configuration not stated)", "values": [{"measurement": "AC50", "setting": "[1]", "result": "0.708 µM [rising, full curve, poor fit]"}]}
{"smiles": "O=C(O)/C=C/C(=O)Nc1ccc(-c2ccccc2)cc1", "values": [{"measurement": "AC50", "setting": "[1]", "result": "25.1 µM [falling, single point] and 35.5 µM [falling, single point]"}]}
{"smiles": "Cc1cc(C)n2[nH]c(=O)c(N=Nc3cccc(C(F)(F)F)c3)c2n1", "values": [{"measurement": "AC50", "setting": "[1]", "result": "6.51 µM [rising, single point]"}]}
{"smiles": "COc1cccc(NC2CC(=O)N(CCc3ccccc3)C2=O)c1", "note": "(configuration not stated)", "values": [{"measurement": "AC50", "setting": "[1]", "result": "4.47 µM [falling, partial curve, poor fit]"}]}
{"smiles": "Cc1ccc(NC(=O)c2ccccn2)c(Br)c1", "values": [{"measurement": "AC50", "setting": "[1]", "result": "12.6 µM [rising, partial curve, poor fit]"}]}
{"smiles": "C/C(Cn1cnc([N+](=O)[O-])n1)=N\\NC(=O)c1ccc(F)cc1", "values": [{"measurement": "AC50", "setting": "[1]", "result": "13 µM [falling, partial curve]"}]}
{"smiles": "CC(Sc1ccc(Cl)cc1)C(=O)Nc1ccccc1C(=O)N1CCOCC1", "note": "(configuration not stated)", "values": [{"measurement": "AC50", "setting": "[1]", "result": "0.82 µM [falling, full curve, poor fit]"}]}
{"smiles": "O=c1cc(-c2ccco2)oc2ccc(Cl)cc12", "values": [{"measurement": "AC50", "setting": "[1]", "result": "1.03 µM [rising, full curve, poor fit]"}]}
{"smiles": "COc1cccc(-n2c(SCc3ccccn3)nc3c(c2=O)SCC3)c1", "values": [{"measurement": "AC50", "setting": "[1]", "result": "35.5 µM [rising, single point]"}]}
{"smiles": "Oc1ccccc1-c1cc(-c2ccccc2)no1", "values": [{"measurement": "AC50", "setting": "[1]", "result": "3.98 µM [falling, partial curve]"}]}
{"smiles": "Brc1cc2c(cc1/C=N/Nc1nc(N3CCCCC3)nc(N3CCCCC3)n1)OCO2", "values": [{"measurement": "AC50", "setting": "[1]", "result": "10 µM [falling, partial curve]"}]}
{"smiles": "O=Nc1c(O)n(Cc2c(Cl)cccc2Cl)c2ccccc12", "values": [{"measurement": "AC50", "setting": "[1]", "result": "2.59 µM [rising, full curve, poor fit]"}]}
{"smiles": "CN(C)c1ccc(/C=C2\\SC(N3CCCCC3)=NC2=O)cc1", "values": [{"measurement": "AC50", "setting": "[1]", "result": "0.1 µM [rising, full curve, poor fit]"}]}
{"smiles": "CSc1ccccc1NC(=O)c1cccc(S(=O)(=O)N2CCN(C)CC2)c1", "values": [{"measurement": "AC50", "setting": "[1]", "result": "6.31 µM [rising, single point]"}]}
{"smiles": "O=C(O)CC/C(=N\\NC(=O)c1ccccc1Br)c1ccccc1", "values": [{"measurement": "AC50", "setting": "[1]", "result": "11.6 µM [falling, partial curve]"}]}
{"smiles": "Nc1c(C(=O)c2ccc(Cl)cc2)sc2nc3c(cc12)CCC3", "values": [{"measurement": "AC50", "setting": "[1]", "result": "1.3 µM [falling, full curve]"}]}
{"smiles": "N#CC(C#N)=C1C(=O)N(CCN2CCOCC2)c2ccccc21", "values": [{"measurement": "AC50", "setting": "[1]", "result": "25.1 µM [falling, single point]"}]}
{"smiles": "COc1ccc(N2CC(C)Cn3c2nc2c3c(=O)n(Cc3ccccc3F)c(=O)n2C)c(OC)c1", "note": "(configuration not stated)", "values": [{"measurement": "AC50", "setting": "[1]", "result": "0.411 µM [falling, partial curve, poor fit]"}]}
{"smiles": "Cc1c(NC(=O)c2cccc(NC(=O)Cc3ccc(Cl)cc3)c2)c(=O)n(-c2ccccc2)n1C", "values": [{"measurement": "AC50", "setting": "[1]", "result": "14.6 µM [rising, single point]"}, {"measurement": "AC50", "setting": "measured here: IkBa-CBG green luminescence", "result": "23.1 µM [falling, partial curve, poor fit]"}]}
{"smiles": "COc1ccc(C(=O)Nc2cc([N+](=O)[O-])ccc2N2CCN(C)CC2)cc1", "values": [{"measurement": "AC50", "setting": "[1]", "result": "3.16 µM [rising, full curve, poor fit]"}]}
{"smiles": "CC(=O)Nc1ccc(Oc2ccccc2)cc1", "values": [{"measurement": "AC50", "setting": "[1]", "result": "0.447 µM [rising, partial curve, poor fit]"}]}
{"smiles": "Cc1ccc(C(=O)N/N=C(/CC(=O)c2cccs2)C(F)(F)F)cc1", "values": [{"measurement": "AC50", "setting": "[1]", "result": "32.6 µM [falling, single point]"}]}
{"smiles": "Cc1cccc(C(=O)NCC(=O)OCC(=O)N(C)CC(=O)Nc2ccccc2Cl)c1", "values": [{"measurement": "AC50", "setting": "[1]", "result": "0.164 µM [rising, full curve, poor fit]"}]}
{"smiles": "O=C(Nc1cccc2ccccc12)N1CCN(c2ncccn2)CC1", "values": [{"measurement": "AC50", "setting": "[1]", "result": "11.2 µM [falling, partial curve]"}]}
{"smiles": "COC(=O)C1CCN(C(=O)COC(=O)/C=C/c2ccc(O)c(OC)c2)CC1", "values": [{"measurement": "AC50", "setting": "[1]", "result": "29.1 µM [falling, single point]"}]}
{"smiles": "CC/C(C)=N/N1C(=O)c2ccccc2NC1(C)CC", "note": "(configuration not stated)", "values": [{"measurement": "AC50", "setting": "[1]", "result": "0.794 µM [falling, full curve]"}]}
{"smiles": "COc1ccc(Cl)cc1NC(=O)COC(=O)c1ccc(Br)o1", "values": [{"measurement": "AC50", "setting": "[1]", "result": "13 µM [rising, partial curve, poor fit]"}]}
{"smiles": "CCOC(OCC)c1cc2ccccc2cn1", "values": [{"measurement": "AC50", "setting": "[1]", "result": "1.84 µM [falling, partial curve, poor fit]"}]}
{"smiles": "CCOC(=O)c1ccc(NC(=S)NCCc2ccccc2)cc1", "values": [{"measurement": "AC50", "setting": "[1]", "result": "0.282 µM [falling, full curve]"}]}
{"smiles": "Cc1csc(NC(=O)CSc2nnc(Cc3cccn3C)n2CCc2ccccc2)n1", "values": [{"measurement": "AC50", "setting": "[1]", "result": "4.11 µM [falling, partial curve, poor fit]"}]}
{"smiles": "CC(=O)Nc1cccc(C(=O)OCC(=O)NC2CCCCCCC2)c1", "values": [{"measurement": "AC50", "setting": "[1]", "result": "1.46 µM [rising, partial curve, poor fit]"}]}
{"smiles": "Cc1ccccc1OCC(=O)NNC(=O)c1ccoc1C", "values": [{"measurement": "AC50", "setting": "[1]", "result": "7.31 µM [rising, partial curve, poor fit]"}]}
{"smiles": "COc1ccc2[nH]c(C)c(CCNC(=S)Nc3cc(C)cc(C)c3)c2c1", "values": [{"measurement": "AC50", "setting": "[1]", "result": "20.6 µM [rising, partial curve, poor fit]"}]}
{"smiles": "CCCNC(=O)c1ccc(-c2nc3ccccc3s2)s1", "values": [{"measurement": "AC50", "setting": "[1]", "result": "0.092 µM [rising, partial curve, poor fit]"}]}
{"smiles": "C=C(C)C(=O)Nc1cccc(C2=NOC3(C2)C[C@H](C(N)=O)N(C(=O)C(c2ccccc2)c2ccccc2)C3)c1", "note": "(some centres not stated)", "values": [{"measurement": "AC50", "setting": "[1]", "result": "1.26 µM [rising, partial curve, poor fit]"}]}
{"smiles": "COc1ccc(CCNC(=O)c2ccc3c(c2)N(Cc2ccccc2Cl)C(=O)c2ccccc2S3)cc1OC", "values": [{"measurement": "AC50", "setting": "[1]", "result": "14.1 µM [rising, single point]"}]}
